# This is one part of the list.
# Sequences of proteins named here, by UniProt entry; tags and fusion partners are left off. A change or cut given only in a name is not applied to a line headed by its entry.
# UniProt Q9H2Y7: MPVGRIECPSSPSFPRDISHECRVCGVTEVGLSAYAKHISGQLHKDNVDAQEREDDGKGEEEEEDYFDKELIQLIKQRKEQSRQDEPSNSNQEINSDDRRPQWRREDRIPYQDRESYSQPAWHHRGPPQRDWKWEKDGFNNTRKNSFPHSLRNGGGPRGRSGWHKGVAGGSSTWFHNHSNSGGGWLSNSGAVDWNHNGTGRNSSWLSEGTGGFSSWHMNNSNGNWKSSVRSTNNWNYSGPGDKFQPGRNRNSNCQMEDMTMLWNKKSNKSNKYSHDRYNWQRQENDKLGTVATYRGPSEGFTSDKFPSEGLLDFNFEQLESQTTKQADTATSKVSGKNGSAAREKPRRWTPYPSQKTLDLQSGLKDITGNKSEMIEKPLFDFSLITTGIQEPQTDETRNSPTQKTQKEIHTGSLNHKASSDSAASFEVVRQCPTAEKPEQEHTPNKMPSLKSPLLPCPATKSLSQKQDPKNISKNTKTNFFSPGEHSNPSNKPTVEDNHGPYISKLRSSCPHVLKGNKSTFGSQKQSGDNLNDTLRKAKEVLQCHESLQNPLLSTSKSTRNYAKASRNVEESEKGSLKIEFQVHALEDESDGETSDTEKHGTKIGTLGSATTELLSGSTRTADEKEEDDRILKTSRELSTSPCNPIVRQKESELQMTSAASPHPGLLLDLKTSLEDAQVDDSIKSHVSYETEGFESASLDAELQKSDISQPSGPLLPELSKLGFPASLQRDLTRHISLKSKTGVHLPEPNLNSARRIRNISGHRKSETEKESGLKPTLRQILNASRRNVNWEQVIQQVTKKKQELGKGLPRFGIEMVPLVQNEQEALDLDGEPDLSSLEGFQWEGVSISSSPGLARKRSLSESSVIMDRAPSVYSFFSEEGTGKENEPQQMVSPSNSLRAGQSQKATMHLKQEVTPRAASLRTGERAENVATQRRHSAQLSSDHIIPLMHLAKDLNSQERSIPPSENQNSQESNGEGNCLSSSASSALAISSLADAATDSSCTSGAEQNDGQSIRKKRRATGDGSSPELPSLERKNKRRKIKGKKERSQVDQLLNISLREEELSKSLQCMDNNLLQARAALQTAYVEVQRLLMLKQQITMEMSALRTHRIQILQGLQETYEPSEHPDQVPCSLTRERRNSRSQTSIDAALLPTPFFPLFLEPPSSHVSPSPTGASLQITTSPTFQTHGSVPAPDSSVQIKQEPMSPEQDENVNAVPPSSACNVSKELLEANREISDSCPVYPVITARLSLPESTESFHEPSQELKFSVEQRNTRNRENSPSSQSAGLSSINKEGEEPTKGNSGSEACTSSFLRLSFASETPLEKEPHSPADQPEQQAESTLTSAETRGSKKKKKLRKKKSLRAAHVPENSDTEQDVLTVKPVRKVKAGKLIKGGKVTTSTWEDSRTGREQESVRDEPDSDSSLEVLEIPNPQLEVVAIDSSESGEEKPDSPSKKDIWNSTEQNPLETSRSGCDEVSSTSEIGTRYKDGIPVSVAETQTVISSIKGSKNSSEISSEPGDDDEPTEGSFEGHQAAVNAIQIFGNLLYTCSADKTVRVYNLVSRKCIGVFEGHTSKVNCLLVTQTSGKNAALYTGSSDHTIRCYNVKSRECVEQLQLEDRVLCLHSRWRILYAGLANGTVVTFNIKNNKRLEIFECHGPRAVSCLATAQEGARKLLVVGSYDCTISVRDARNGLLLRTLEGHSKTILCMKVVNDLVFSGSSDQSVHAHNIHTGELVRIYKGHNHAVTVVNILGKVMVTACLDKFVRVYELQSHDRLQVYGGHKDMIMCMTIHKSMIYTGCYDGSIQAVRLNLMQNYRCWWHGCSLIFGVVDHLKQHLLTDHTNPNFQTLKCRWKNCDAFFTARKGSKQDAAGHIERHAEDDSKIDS
# Biological target: ZNF106_Q9H2Y7-2_7_CILCHIVYSSK (UniProt Q9H2Y7)
# Test: probe-labelled cysteine peptide fold change vs DMSO (competition) (log2 fold change); higher = less target engagement (more negative = stronger competition)
# Details: THP-1, incubation time: 4 h
# 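Also: competitive chemoproteomic profiling in live THP-1 cells with an iodoacetamide desthiobiotin (IA-DTB) probe, comparing probe-labelled peptide intensities in compound-treated cells against DMSO-treated controls.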
structure (smiles),measurement,setting,value
CC1Cc2ccccc2N1C(=O)C1CCCN(C(=O)CCl)C1 (mixture of isomers) [TRIM25 ligand 11 (diastereomer mixture)],probe-labelled cysteine peptide fold change,10 µM,-0.145
same,probe-labelled cysteine peptide fold change,50 µM,0.00734
